Data source: PubChem BioAssay AID652243 (Drosophila RNAi Screening Center, 2013)

- Aim: 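Fly regulators of androgen-dependent reporter output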 (primary screen)
- Cells: Drosophila S2R+ cells
- Reagent: long dsRNA against Drosophila genes
- Time to read-out: 72 h (48 h, then 24 h hormone)
- Challenge: synthetic androgen R1881 at 10 nM for 24 h
- Read-out: 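Firefly light from an androgen-responsive reporter and Renilla control light per well, raw and unnormalised, for each of two replicates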
- Reading the numbers: firefly reporter light: higher = more light from androgen-responsive reporter; Renilla control light: higher = more constitutive control signal (cell number, transfection)
- Active means: 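Across duplicate plates, a knock-down whose log firefly/Renilla ratio shifted a set fold down or up from the GFP/LacZ control mean was a hit; the downward cut appears as both 1.5 and 3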
- Calls: active = hit: reporter lowered or raised; inactive = no hit
The deposit covers about 24,000 reagents; this is an unselected part of those that have a named target and a result. Of all reagents, 246 (1%) got an active call. 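Plates not normalised; calls are printed but the firefly/Renilla ratio behind them is not deposited; fold cut for lowering reported inconsistently.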 The raw values are shown without normalisation. Reagents against one gene are numbered here. Not given: the amount of reagent.

| Gene | reagent no. | firefly reporter light, replicate 1 | firefly reporter light, replicate 2 | Renilla control light, replicate 1 | Renilla control light, replicate 2 | call |
| --- | --- | --- | --- | --- | --- | --- |
| Tnks | 1 | 1.77e5 | 1.65e5 | 1.60e6 | 1.60e6 | inactive |
| CG12057 | 1 | 4.50e5 | 5.21e5 | 3.55e6 | 3.69e6 | inactive |
| Akh | 1 | 3.67e5 | 2.85e5 | 3.34e6 | 2.04e6 | inactive |
| Akh | 2 | 2.54e5 | 5.13e5 | 4.40e5 | 1.16e6 | inactive |
| CG32453 | 1 | 5.78e5 | 5.29e5 | 2.77e6 | 2.27e6 | inactive |
| sim | 1 | 54165 | 52580 | 9.69e5 | 1.12e6 | inactive |
| sim | 2 | 3.66e5 | 4.47e5 | 8.14e5 | 7.54e5 | inactive |
| Dnali1 | 1 | 77249 | 94615 | 5.30e5 | 6.18e5 | inactive |
| zye | 1 | 4.31e5 | 2.43e5 | 3.20e6 | 2.30e6 | inactive |
| sphinx1 | 1 | 1.20e5 | 1.15e5 | 1.20e6 | 9.77e5 | inactive |
| sphinx1 | 2 | 4.69e5 | 4.87e5 | 4.86e5 | 4.70e5 | inactive |
| SmE | 1 | 2.15e5 | 2.25e5 | 1.98e6 | 1.39e6 | inactive |
| Dro | 1 | 1.32e5 | 2.09e5 | 2.59e6 | 2.59e6 | inactive |
| Dro | 2 | 9.55e5 | 1.08e6 | 2.28e6 | 1.93e6 | inactive |
| CG14570 | 1 | 3.42e5 | 2.70e5 | 2.60e6 | 2.50e6 | inactive |
| CG14570 | 2 | 5.83e5 | 6.70e5 | 7.17e5 | 7.28e5 | inactive |
| Col4a1 | 1 | 1.04e6 | 1.10e6 | 2.18e6 | 2.35e6 | inactive |
| Cpr65Ec | 1 | 93324 | 1.94e5 | 1.50e6 | 1.56e6 | inactive |
| Cpr65Ec | 2 | 1.17e6 | 1.23e6 | 1.06e6 | 1.00e6 | inactive |
| Ald2 | 1 | 1.15e5 | 2.19e5 | 1.96e6 | 2.13e6 | inactive |
| Ald2 | 2 | 4.15e5 | 4.65e5 | 5.71e5 | 6.58e5 | inactive |

3 entries already listed, arranged by “firefly reporter light, replicate 1”, highest first:
| Gene | reagent no. | firefly reporter light, replicate 1 | firefly reporter light, replicate 2 | Renilla control light, replicate 1 | Renilla control light, replicate 2 | call |
| --- | --- | --- | --- | --- | --- | --- |
| CG12057 | 1 | 4.50e5 | 5.21e5 | 3.55e6 | 3.69e6 | inactive |
| Akh | 1 | 3.67e5 | 2.85e5 | 3.34e6 | 2.04e6 | inactive |
| Akh | 2 | 2.54e5 | 5.13e5 | 4.40e5 | 1.16e6 | inactive |

More reagents:
| Gene | reagent no. | firefly reporter light, replicate 1 | firefly reporter light, replicate 2 | Renilla control light, replicate 1 | Renilla control light, replicate 2 | call |
| --- | --- | --- | --- | --- | --- | --- |
| CG6012 | 1 | 1.72e5 | 2.86e5 | 2.14e6 | 2.65e6 | inactive |
| grh | 1 | 1.58e5 | 98197 | 1.97e5 | 1.71e5 | inactive |
| grh | 2 | 24871 | 74199 | 1.15e5 | 1.65e5 | inactive |
| grh | 3 | 5.41e5 | 4.35e5 | 4.75e5 | 4.27e5 | inactive |
| grh | 4 | 1.03e5 | 1.26e5 | 1.28e6 | 1.28e6 | inactive |
| grh | 5 | 4.67e5 | 5.52e5 | 6.75e5 | 7.51e5 | inactive |
| grh | 6 | 9.13e5 | 7.82e5 | 1.34e6 | 1.05e6 | inactive |
| CG5011 | 1 | 8.16e5 | 9.03e5 | 2.86e6 | 2.48e6 | inactive |
| CG5608 | 1 | 78152 | 1.11e5 | 6.18e5 | 7.19e5 | inactive |
| cold | 1 | 8.98e5 | 5.38e5 | 2.97e6 | 2.40e6 | inactive |
| Nup160 | 1 | 1.10e5 | 1.30e5 | 1.01e6 | 1.42e6 | inactive |
| sqd | 1 | 1.68e5 | 1.38e5 | 2.93e6 | 2.58e6 | inactive |
| sqd | 2 | 4.10e5 | 4.07e5 | 2.81e6 | 3.54e6 | inactive |
| sqd | 3 | 2.82e5 | 6.65e5 | 7.08e5 | 1.52e6 | inactive |
| sqd | 4 | 3.14e5 | 1.74e5 | 7.59e5 | 6.73e5 | inactive |
| sqd | 5 | 2.36e5 | 3.09e5 | 1.21e6 | 7.78e5 | inactive |
| CG1663 | 1 | 4.16e5 | 2.75e5 | 2.81e6 | 2.51e6 | inactive |
| CG1663 | 2 | 4.03e5 | 6.57e5 | 1.19e6 | 1.86e6 | inactive |
| CG1663 | 3 | 3.13e5 | 1.08e6 | 9.10e5 | 1.70e6 | inactive |
